# For part of these data: Part of at least one peptide drawing is inferred or uncertain, most often the ends. Some results were stated once for a whole list of compounds, not compound by compound. Where a SMILES comes first, the peptide text is derived from it. Where no end group is shown, it is not given here.
# Key:
# HeLa cells = assay: DNA (pCl-Luc luciferase plasmid) transfection with peptide dendrimer and lipid; format: cell-based, human; conditions: for DNA transfection efficiency (luciferase, normalised to D/D), in words: 0.25 μg pCl-Luc, dendrimer with D/D
# Procedure: Cell Lines, transfection reagents and plasmids. HeLa cells were maintained in RPMI medium with 10% (v/v) FCS and 1% (v/v) P/S in a humidified atmosphere in 5% CO2 and 37° C. The plasmid pCl-Luc was derived from plasmid pCl (Promega, Southampton, UK) with the luciferase gene inserted. Branched PEI (25 kDa) was purchased from Sigma-Aldrich. Lipofectamine 2000 (L2000) and Lipofectin (DOTMA:DOPE, 1:1 (w/w)) were obtained from Invitrogen. PEI, L2000 and lipofectin were used as positive control transfection agents in accordance with the manufacturer's instructions.
# Transfection procedure. 24 hours before transfection, HeLa cells were seeded (10,000 cells in 100 μL/well) in 96 well plates in order to reach 70% confluence. Plasmid transfection complexes were formed by mixing the dendrimers (100 μL, from 60 μg to 105 μg, dependent on N/P ratios) with lipofectin (4 μg; 100 μL). These mixtures were incubated with a pCl-Luc (4 μg; 100 μL) at different N/P ratios in OptiMEM for 30 min at 25° C. Transfection control complexes (PEI, Lipofectin or L2000) (total 100 μL in OptiMEM) were mixed with pCl-Luc (4 μg; 100 μL) at the respective manufacturers' recommended concentrations. For transfection in serum-free medium, before overlaying the DNA complexes on the cells, OptiMEM was added to dilute the complexes, so that each complex contained 0.25 μg DNA in a total volume of 100 μL in one well of a 96 well plate. For transfection in serum medium, before overlaying the DNA complexes on the cells, full growth medium was added to dilute the complexes, so that each complex contained 0.25 μg DNA in a total volume of 100 μL in one well of a 96 well plate. After removing complete media from the cells, the complexes were added to the plates. The plates were incubated for 4 hours at 37° C. Then, the transfection solutions were replaced by full growth media for 24 hours before luciferase activity was assayed.
# Transgene expression assay. The cells were washed twice with PBS and incubated with reporter lysis buffer (20 μL, Promega) for 20 min at 4° C., then overnight at −80° C. After the cells were defrosted at room temperature, luciferase assay buffer (100 μL, Promega; prepared according to the manufacturer's protocol) was added to each well. The luminescent product was measured by Relative Light Units (RLU) in a FLUOstar Optima luminometer (BMG Labtech).
# Protein content determination. The protein content of each cell lysate was determined by mixing the lysate (20 μL) with Bio-Rad Protein Assay Reagent (180 μL, Bio-Rad, Hemel Hempstead, UK). After incubation of 10 min, the absorbance at 590 nm was measured and converted to protein concentration using a BSA standard curve. RLU per mg of protein represented luciferase activity. The ratio of these two values is the activity per protein unit (in RLU/mg).
# Neuro2A cells = assay: as above; format: cell-based, mouse; conditions: for DNA transfection efficiency (luciferase, normalised to D/D), in words: Neuro2A, 0.25 μg pCl-Luc, dendrimer with D/D
# [1] = Hydrodynamic size, polydispersity index and zeta potential of dendrimer, lipid and mRNA complexes; format: physicochemical; conditions: DOTMA/DOPE w/w 10:1 to mRNA; for Hydrodynamic size: dendrimer, lipid and mRNA complexes
# Procedure: The hydrodynamic size, polydispersity index and Zeta potential was determined for a set of the dendrimers disclosed in Tables 1 and 2.
# immune cells = assay: Immune cell targeting: uptake of labelled mRNA after intravenous injection (flow cytometry); format: in vivo, mice; conditions: spleen, 2 hrs post-injection
# Procedure: Fifteen 5-7-week-old female CD-1 mice (Charles River UK) were dosed with 1 mg/kg of either mRNA labelled with Alexa Fluor488 only or mRNA labelled with Alexa Fluor488 with NTX1 and DOTMA/DOPE or mRNA labelled with Alexa Fluor488 with G1,2-RL, 3-LR and DOTMA/DOPE or mRNA labelled with Alexa Fluor488 with G1,2-RL, 3-LR and DOTMA/DOPE, respectively, via intravenous injection using a dose volume of 5 ml/kg. Group 1 received vehicle and Group 5 received mRNA alone as controls. Mice in al groups were culled 2 hours post IV administration. At the time of euthanasia, whole blood, spleen, inguinal lymph nodes and femurs were collected from all mice. White Blood Cells (WBC) were obtained from EDTA treated whole blood, spleen, inguinal lymph nodes and bone marrow for flow cytometry analysis. In short, bone marrow (BM) was flushed from femurs, and spleens and lymph nodes were processed to single cell suspensions by passing them through a 70 μm filter. Red blood cells in blood, BM and spleen were lysed before isolated WBCs from all tissues were stained with different antibody panels to identify specific sub-populations of immune cells. The staining was performed in a 96-well plate format before samples were analysed using an ACEA Novocyte 3005 flow cytometer.
compound,measurement,setting,value
"KLKLKGSC-NH2 [G1-KL, (KL)2KGSC-NH2]","DNA transfection efficiency (luciferase, normalised to D/D), in words",HeLa cells; HeLa,do not transfect
same,"DNA transfection efficiency (luciferase, normalised to D/D), in words",Neuro2A cells,do not transfect
"CC(C)C[C@H](NC(=O)[C@H](CCCCN)NC(=O)[C@H](CCCCNC(=O)[C@H](CC(C)C)NC(=O)[C@H](CCCCN)NC(=O)[C@H](CCCCNC(=O)[C@H](CC(C)C)NC(=O)[C@@H](N)CCCCN)NC(=O)[C@H](CC(C)C)NC(=O)[C@@H](N)CCCCN)NC(=O)[C@H](CC(C)C)NC(=O)[C@H](CCCCN)NC(=O)[C@H](CCCCNC(=O)[C@H](CC(C)C)NC(=O)[C@@H](N)CCCCN)NC(=O)[C@H](CC(C)C)NC(=O)[C@@H](N)CCCCN)C(=O)NCCCC[C@H](NC(=O)[C@H](CC(C)C)NC(=O)[C@H](CCCCN)NC(=O)[C@H](CCCCNC(=O)[C@H](CC(C)C)NC(=O)[C@H](CCCCN)NC(=O)[C@H](CCCCNC(=O)[C@H](CC(C)C)NC(=O)[C@@H](N)CCCCN)NC(=O)[C@H](CC(C)C)NC(=O)[C@@H](N)CCCCN)NC(=O)[C@H](CC(C)C)NC(=O)[C@H](CCCCN)NC(=O)[C@H](CCCCNC(=O)[C@H](CC(C)C)NC(=O)[C@@H](N)CCCCN)NC(=O)[C@H](CC(C)C)NC(=O)[C@@H](N)CCCCN)C(=O)NCC(=O)N[C@@H](CO)C(=O)N[C@@H](CS)C(N)=O [G1,2,3-KL, (KL)8(KKL)4(KKL)2KGSC-NH2] (HELM PEPTIDE1{K.L.K.K.L.K.K.L.K.G.S.C.[am]}|PEPTIDE2{K.L}|PEPTIDE3{K.L.K.K.L.K.K.L}|PEPTIDE4{K.L}|PEPTIDE5{K.L.K.K.L}|PEPTIDE6{K.L}|PEPTIDE7{K.L.K.K.L}|PEPTIDE8{K.L}$PEPTIDE1,PEPTIDE2,3:R3-2:R2|PEPTIDE3,PEPTIDE4,3:R3-2:R2|PEPTIDE5,PEPTIDE6,3:R3-2:R2|PEPTIDE7,PEPTIDE8,3:R3-2:R2|PEPTIDE1,PEPTIDE7,6:R3-5:R2|PEPTIDE1,PEPTIDE3,9:R3-8:R2|PEPTIDE3,PEPTIDE5,6:R3-5:R2$$$V2.0)",transfection efficiency compared to DOTMA/DOPE alone,"HeLa cells; HeLa, presence of serum, D/D alone defined at 100%",200 fold
same,cell transfection of DNA compared to Lipofectamine 2000,"HeLa cells; summary statement, dendrimer associated with lipids, cell line not stated",6-10 fold
same,transfection activity compared to DOTMA/DOPE alone,"Neuro2A cells; Neuro 2A, presence of serum",340 fold
"CC(C)C[C@H](NC(=O)[C@@H](N)CCCNC(=N)N)C(=O)NCCCC[C@H](NC(=O)[C@H](CC(C)C)NC(=O)[C@@H](N)CCCNC(=N)N)C(=O)NCC(=O)N[C@@H](CO)C(=O)N[C@@H](CS)C(N)=O [G1-RL, (RL)2KGSC-NH2] (HELM PEPTIDE1{R.L.K.G.S.C.[am]}|PEPTIDE2{R.L}$PEPTIDE1,PEPTIDE2,3:R3-2:R2$$$V2.0)","DNA transfection efficiency (luciferase, normalised to D/D), in words",HeLa cells; HeLa,do not transfect
same,"DNA transfection efficiency (luciferase, normalised to D/D), in words",Neuro2A cells,do not transfect
"CC(C)C[C@@H](NC(=O)[C@H](N)CCCNC(=N)N)C(=O)NCCCC[C@@H](NC(=O)[C@@H](CC(C)C)NC(=O)[C@H](N)CCCNC(=N)N)C(=O)N[C@H](CCCNC(=N)N)C(=O)N[C@H](CC(C)C)C(=O)NCCCC[C@@H](NC(=O)[C@@H](CC(C)C)NC(=O)[C@@H](CCCNC(=N)N)NC(=O)[C@@H](CCCCNC(=O)[C@@H](CC(C)C)NC(=O)[C@H](N)CCCNC(=N)N)NC(=O)[C@@H](CC(C)C)NC(=O)[C@H](N)CCCNC(=N)N)C(=O)N[C@H](CCCNC(=N)N)C(=O)N[C@H](CC(C)C)C(=O)NCCCC[C@@H](NC(=O)[C@@H](CC(C)C)NC(=O)[C@@H](CCCNC(=N)N)NC(=O)[C@@H](CCCCNC(=O)[C@@H](CC(C)C)NC(=O)[C@@H](CCCNC(=N)N)NC(=O)[C@@H](CCCCNC(=O)[C@@H](CC(C)C)NC(=O)[C@H](N)CCCNC(=N)N)NC(=O)[C@@H](CC(C)C)NC(=O)[C@H](N)CCCNC(=N)N)NC(=O)[C@@H](CC(C)C)NC(=O)[C@@H](CCCNC(=N)N)NC(=O)[C@@H](CCCCNC(=O)[C@@H](CC(C)C)NC(=O)[C@H](N)CCCNC(=N)N)NC(=O)[C@@H](CC(C)C)NC(=O)[C@H](N)CCCNC(=N)N)C(=O)NCC(=O)N[C@H](CO)C(=O)N[C@H](CS)C(N)=O [G1,2,3-rl, (rl)8(krl)4(krl)2kgsc-NH2] (HELM PEPTIDE1{[dR].[dL].[dK].[dR].[dL].[dK].[dR].[dL].[dK].G.[dS].[dC].[am]}|PEPTIDE2{[dR].[dL]}|PEPTIDE3{[dR].[dL].[dK].[dR].[dL].[dK].[dR].[dL]}|PEPTIDE4{[dR].[dL]}|PEPTIDE5{[dR].[dL].[dK].[dR].[dL]}|PEPTIDE6{[dR].[dL]}|PEPTIDE7{[dR].[dL].[dK].[dR].[dL]}|PEPTIDE8{[dR].[dL]}$PEPTIDE1,PEPTIDE2,3:R3-2:R2|PEPTIDE3,PEPTIDE4,3:R3-2:R2|PEPTIDE5,PEPTIDE6,3:R3-2:R2|PEPTIDE7,PEPTIDE8,3:R3-2:R2|PEPTIDE1,PEPTIDE7,6:R3-5:R2|PEPTIDE1,PEPTIDE3,9:R3-8:R2|PEPTIDE3,PEPTIDE5,6:R3-5:R2$$$V2.0)",Polydispersity Index (PDI),[1]; N:P 0.16:1,0.095
same,Zeta Potential,[1]; N:P 0.16:1,41 mV
same,Polydispersity Index (PDI),[1]; N:P 8:1,0.21
same,Zeta Potential,[1]; N:P 8:1,53 mV
same,Hydrodynamic size,[1]; N:P 0.16:1,130 nm
same,Hydrodynamic size,[1]; N:P 8:1,83 nm
"(LR)8(KRL)4(KRL)2KGSC-NH2 [G1,2-RL, 3-LR]","monocytes/macrophages, neutrophils, and dendritic cells with delivered mRNA",immune cells; NP=0.15:1,≥ 5%
same,"monocytes/macrophages, neutrophils, and dendritic cells with delivered mRNA",immune cells; NP=8:1,≥ 5%
